PubChem BioAssay AID1259281 – Sanger Institute | 2017
This is an unselected part of 794 reagents tested. 22 of all reagents (2.8%) count as active. 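Calls rest on knock-down alone only; drug synergy scores play no part in them.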 Not all columns of the deposit are shown. The record does not give: the amount of reagent, the time to read-out.

- Assay: 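Screen kinases and frequently colorectal-mutated genes for lethal knock-downs and drug partners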 (primary screen)
- System: human COLO678 colorectal cancer cell line
- Reagent: siRNA pool against human genes
- Treatment: anchor drugs at fixed doses: BYL719 1 µM, cetuximab 5 µg/ml or trametinib 10 nM; DMSO vehicle for the siRNA-alone arm
- Measured: 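Surviving cells scaled to non-targeting siRNA control as replicate means; robust z-score for knock-down alone; synergy scores weigh knock-down with drug against the predicted combined effect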
- Direction: robust z-score, siRNA alone: higher = more viable cells; strongly negative means essential
- Hit rule: 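Essential (knock-down alone) when the siRNA-alone robust z-score is below -3; otherwise no change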
- Calls: active = essential (knock-down alone); inactive = no change

Silencing of PXK [SID152149443] came out at: robust z-score, siRNA alone 0.473; inactive.
CSNK2B [SID56479183] gave robust z-score, siRNA alone 0.473; inactive.
SIK2 [SID135620885] scored robust z-score, siRNA alone 0.473; inactive.
With knock-down of SGK1 [SID152156682] the results were robust z-score, siRNA alone 0.473; inactive.
IGF1R [SID152153009] showed robust z-score, siRNA alone -1.88; inactive.
Knock-down of IKBKB [SID152150353] resulted in: robust z-score, siRNA alone 0.285; inactive.
Depletion of GSK3B [SID56478468] gave: robust z-score, siRNA alone 0.473; inactive.
Against NUP62 [SID135622326], the entry reads robust z-score, siRNA alone 0.473; inactive.
After knock-down of TTBK1 [SID135620866], the record shows robust z-score, siRNA alone 0.473; inactive.
Depletion of CDKN2D [SID135620643] gave: robust z-score, siRNA alone 0.473; inactive.
For TP53RK [SID135620611] the deposit lists robust z-score, siRNA alone 0.473; inactive.
Depletion of TPK1 [SID135621256] came out at: robust z-score, siRNA alone 0.473; inactive.
With knock-down of SIK1 [SID152146842], the record shows robust z-score, siRNA alone 0.473; inactive.
Against PRKCD [SID56478673], the values are robust z-score, siRNA alone 0.151; inactive.
Knock-down of DYRK1A [SID135620889] gave: robust z-score, siRNA alone 0.473; inactive.
CALM3 [SID152148336] scored robust z-score, siRNA alone 0.16; inactive.
After knock-down of CDK18 [SID56478887], the screen gave robust z-score, siRNA alone 0.473; inactive.
Against DGKK [SID135624472], the entry reads robust z-score, siRNA alone -1.56; inactive.
Against GRK3 [SID135620814], the entry reads robust z-score, siRNA alone 0.473; inactive.
Knock-down of FGFR3 [SID56478513] resulted in: robust z-score, siRNA alone 0.358; inactive.
For MAP3K10 [SID56478692], the entry reads robust z-score, siRNA alone 0.473; inactive.
Against MAP2K4 [SID56478690], the entry reads robust z-score, siRNA alone 0.473; inactive.
KMT2B [SID134314396] gave robust z-score, siRNA alone 0.473; inactive.
With knock-down of DSTYK [SID152147164], the record shows robust z-score, siRNA alone 0.473; inactive.
Depletion of BRD2 [SID135620911] gave: robust z-score, siRNA alone 0.473; inactive.
After knock-down of PANK4 [SID56479123], the screen gave robust z-score, siRNA alone -1.45; inactive.
ATRX [SID152156576] showed robust z-score, siRNA alone 0.473; inactive.
TSSK2 [SID56479050] gave robust z-score, siRNA alone 0.473; inactive.
After knock-down of STK35 [SID135620978], the record shows robust z-score, siRNA alone 0.473; inactive.
AKAP9 [SID134321301] showed robust z-score, siRNA alone -1.55; inactive.
With knock-down of RIOK2 [SID134310711], the record shows robust z-score, siRNA alone 0.166; inactive.
Silencing of ERN2 [SID135620900] gave: robust z-score, siRNA alone 0.234; inactive.
Silencing of NR4A2 [SID134309878] resulted in: robust z-score, siRNA alone -2.71; inactive.
MAP2K2 [SID56478689] scored robust z-score, siRNA alone 0.473; inactive.
Depletion of FYN [SID135620621] came out at: robust z-score, siRNA alone 0.473; inactive.
PBK [SID56479058] showed robust z-score, siRNA alone 0.473; inactive.

2 entries from above, arranged by “robust z-score, siRNA alone”, lowest first.
AKAP9 [SID134321301]: robust z-score, siRNA alone = -1.55; call = inactive
RIOK2 [SID134310711]: robust z-score, siRNA alone = 0.166; call = inactive
